Drawing on PMC10539465, this text covers binding for one substance.

Amino acid sequences for entries named in this document (tags omitted). Residues count along the entry.
UniProt Q09472: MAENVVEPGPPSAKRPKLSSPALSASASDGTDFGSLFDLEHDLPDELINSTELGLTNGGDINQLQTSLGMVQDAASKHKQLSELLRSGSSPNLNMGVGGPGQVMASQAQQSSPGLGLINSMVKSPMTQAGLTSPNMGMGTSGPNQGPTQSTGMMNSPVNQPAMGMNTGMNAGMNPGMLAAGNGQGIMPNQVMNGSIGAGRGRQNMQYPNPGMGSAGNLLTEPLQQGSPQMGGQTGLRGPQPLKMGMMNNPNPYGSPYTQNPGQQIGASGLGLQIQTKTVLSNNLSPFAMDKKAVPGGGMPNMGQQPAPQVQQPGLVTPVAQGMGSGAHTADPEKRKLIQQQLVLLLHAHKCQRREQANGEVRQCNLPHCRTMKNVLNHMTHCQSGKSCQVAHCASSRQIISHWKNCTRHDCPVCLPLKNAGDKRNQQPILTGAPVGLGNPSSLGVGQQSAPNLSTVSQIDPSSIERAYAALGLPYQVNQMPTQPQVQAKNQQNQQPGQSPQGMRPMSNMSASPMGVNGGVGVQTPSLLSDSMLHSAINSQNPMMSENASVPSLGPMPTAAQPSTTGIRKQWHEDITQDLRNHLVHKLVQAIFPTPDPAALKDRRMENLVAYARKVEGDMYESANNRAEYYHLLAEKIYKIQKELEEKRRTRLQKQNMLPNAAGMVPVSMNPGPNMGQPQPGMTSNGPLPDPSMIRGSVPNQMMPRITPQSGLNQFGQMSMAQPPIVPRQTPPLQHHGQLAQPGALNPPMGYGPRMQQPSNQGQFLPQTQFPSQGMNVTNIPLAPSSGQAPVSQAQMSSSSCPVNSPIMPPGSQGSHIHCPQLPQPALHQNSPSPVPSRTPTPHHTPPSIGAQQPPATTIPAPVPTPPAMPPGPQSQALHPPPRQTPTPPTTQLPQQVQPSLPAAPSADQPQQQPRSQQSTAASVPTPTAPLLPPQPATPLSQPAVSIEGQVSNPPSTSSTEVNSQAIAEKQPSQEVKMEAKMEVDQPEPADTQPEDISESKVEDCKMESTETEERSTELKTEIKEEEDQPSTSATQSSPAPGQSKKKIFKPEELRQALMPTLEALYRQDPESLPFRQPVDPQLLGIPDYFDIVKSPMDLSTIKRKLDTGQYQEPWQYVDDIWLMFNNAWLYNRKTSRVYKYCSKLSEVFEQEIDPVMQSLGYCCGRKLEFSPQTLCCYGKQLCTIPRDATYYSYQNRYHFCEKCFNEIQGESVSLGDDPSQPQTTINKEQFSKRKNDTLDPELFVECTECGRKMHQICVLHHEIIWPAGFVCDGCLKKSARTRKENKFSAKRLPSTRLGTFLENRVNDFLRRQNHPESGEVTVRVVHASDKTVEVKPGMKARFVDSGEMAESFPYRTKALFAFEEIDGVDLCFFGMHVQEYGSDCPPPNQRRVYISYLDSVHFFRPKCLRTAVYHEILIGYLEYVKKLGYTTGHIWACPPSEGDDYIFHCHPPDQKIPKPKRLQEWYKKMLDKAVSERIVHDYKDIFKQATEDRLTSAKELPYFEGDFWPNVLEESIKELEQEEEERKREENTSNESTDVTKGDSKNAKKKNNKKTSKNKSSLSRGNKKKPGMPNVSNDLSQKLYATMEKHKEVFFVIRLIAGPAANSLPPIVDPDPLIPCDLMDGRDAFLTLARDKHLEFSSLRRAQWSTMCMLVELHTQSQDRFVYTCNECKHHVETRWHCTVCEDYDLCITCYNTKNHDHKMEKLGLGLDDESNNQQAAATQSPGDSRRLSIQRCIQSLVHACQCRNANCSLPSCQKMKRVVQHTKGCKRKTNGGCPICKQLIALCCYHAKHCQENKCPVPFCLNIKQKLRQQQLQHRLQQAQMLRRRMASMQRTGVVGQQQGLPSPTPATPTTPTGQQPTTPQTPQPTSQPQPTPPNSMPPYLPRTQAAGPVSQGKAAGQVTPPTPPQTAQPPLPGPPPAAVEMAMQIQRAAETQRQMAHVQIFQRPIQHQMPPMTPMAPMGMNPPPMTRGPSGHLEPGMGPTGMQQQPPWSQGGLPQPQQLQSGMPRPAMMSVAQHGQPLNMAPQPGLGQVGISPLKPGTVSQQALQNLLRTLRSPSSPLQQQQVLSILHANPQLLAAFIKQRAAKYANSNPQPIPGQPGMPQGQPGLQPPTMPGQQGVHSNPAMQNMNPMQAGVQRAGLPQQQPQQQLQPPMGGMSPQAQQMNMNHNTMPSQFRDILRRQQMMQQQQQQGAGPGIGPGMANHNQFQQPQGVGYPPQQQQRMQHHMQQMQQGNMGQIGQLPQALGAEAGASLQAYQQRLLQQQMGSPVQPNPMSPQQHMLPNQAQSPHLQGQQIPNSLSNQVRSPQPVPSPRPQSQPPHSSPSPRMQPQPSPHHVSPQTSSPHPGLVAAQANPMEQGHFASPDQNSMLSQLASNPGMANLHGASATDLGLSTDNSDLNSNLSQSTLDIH
UniProt P60520: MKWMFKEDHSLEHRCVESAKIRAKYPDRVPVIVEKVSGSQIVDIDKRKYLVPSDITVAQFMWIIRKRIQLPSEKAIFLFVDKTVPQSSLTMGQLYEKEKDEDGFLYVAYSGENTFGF
UniProt O95166: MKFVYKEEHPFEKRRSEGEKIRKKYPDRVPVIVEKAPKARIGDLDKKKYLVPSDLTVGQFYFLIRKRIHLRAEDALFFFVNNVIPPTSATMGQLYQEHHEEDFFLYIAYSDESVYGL
UniProt Q9BXW4, residues 1-126: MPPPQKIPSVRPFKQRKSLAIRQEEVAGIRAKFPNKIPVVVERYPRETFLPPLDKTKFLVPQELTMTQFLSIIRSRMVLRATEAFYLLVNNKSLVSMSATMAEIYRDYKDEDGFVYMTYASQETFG

No constants are given. Whether binding was seen depends on the method and setting. Binding seen in cells or lysates may run through a third protein. Some results given as binding are weak or reduced against the parent protein; the word gives no strength.

For one assay, the target named is HA-tagged p300 (UniProt Q09472). Put plainly: co-IP; HEK293T cells transfected with HA-p300 and TRIM25, lysed in RIPA buffer 48 h after transfection; p300 precipitated from 500 μg lysate, IgG as control; TRIM25 by Western blot. For orientation: Immunoblotting shows a protein as a band on a membrane.
For another assay, the target named is GST-tagged GABA-L2 (UniProt P60520). Put plainly: pull-down; purified GST-fused proteins and GST-agarose mixed with lysate (450 μg protein, diluted to 150 mM NaCl) of H1299 cells transfected with TRIM25, overnight at 4°C; TRIM25 by Western blot; only the target purified.
Another assay concerns the target GST-tagged GABARAB (UniProt O95166). Described as above.
The target of the next assay is GST-tagged LC3A (UniProt Q9H492). The assay is described as above.
Another assay addresses GST-tagged LC3C (UniProt Q9BXW4). Described as above.
Assay [1] deals with p62-SQMT (human (endogenous in MCF7)) (UniProt Q13501). The experiment in a line: co-IP; MCF7 cells (non-targeted and TRIM25 knock-out) cross-linked with formaldehyde, quenched with glycine; p62-SQMT precipitated from 2 mg lysate (50 mM Tris 7.4, 20 mM NaCl, 10 mM MgCl2, 0.5% Igepal CA-630); p300 and TRIM25 by Western blot.

On to TRIM25 (from UniProt Q14258 1-630), for which the binding entry is on record as “binds” with HA-tagged p300; “binds” in the assay with GST-tagged GABA-L2; “binds” with GST-tagged GABARAB; “binds” with GST-tagged LC3A; “binds” with GST-tagged LC3C; “binds weakly” in assay [1].
